At least one compound was matched to its structure with a doubt left.
Legend:
[1] = system: MV4-11 (MLL-AF4) cell line; test: Combination proliferation study with Compound A2 (Example 1), MV4-11; assay type: cell-based, human; conditions: 7 Day Cotreatment; Chou-Talalay CI
From the text: The acute myelogenous leukemia cell lines MV4-11 (MLL-AF4) and MOLM-13 (MLL-AF9) were obtained from American Type Culture Collection (ATCC; Rockville, Md.) and Deutsche Sammlung von Mikroorganismen and Zellkulturen (DSMZ; Braunschweig, Germany) respectively. […] Further, strong synergism is achieved when the CI value falls below 0.3.

MV4-11 (MLL-AF4) = test: Proliferation assay and calculation of synergism (Example 5), MV4-11; assay type: cell-based, human; conditions: 7 Day Cotreatment Model; Chou-Talalay CI
MOLM-13 (MLL-AF9) = test: Proliferation assay and calculation of synergism (Example 5), MOLM-13; assay type: cell-based, human; conditions: 7 Day Cotreatment Model; Chou-Talalay CI
SKM-1 cells = test: Proliferation assay and calculation of synergism (Example 5), SKM-1; conditions: combination with Compound A2

## Nc1ncn([C@H]2C[C@H](O)[C@@H](CO)O2)c(=O)n1 [Decitabine, decitabine]
[1]
  Combination effect with Compound A2 on proliferation, MV4-11: Additive
MV4-11 (MLL-AF4)
  Combination with Compound A2, MV4-11 (MLL-AF4): synergistic anti-proliferative activity
MOLM-13 (MLL-AF9)
  Combination with Compound A2, MOLM-13 (MLL-AF9): synergistic anti-proliferative activity
SKM-1 cells
  Effect of Compound A2 on the antiproliferative activity of the second agent in SKM-1: no impact on the antiproliferative activity
